From publication PMC5690284
These are yes or no findings as the source states them, for the method shown. Binding seen in cells or lysates may run through a third protein. Binding calls can cover weak binding; strength is not graded here.

Molecular target: T1, Disabled-2 (Dab2) (mouse (endogenous in primary aortic SMC)) (UniProt P98078)
T1 sequence: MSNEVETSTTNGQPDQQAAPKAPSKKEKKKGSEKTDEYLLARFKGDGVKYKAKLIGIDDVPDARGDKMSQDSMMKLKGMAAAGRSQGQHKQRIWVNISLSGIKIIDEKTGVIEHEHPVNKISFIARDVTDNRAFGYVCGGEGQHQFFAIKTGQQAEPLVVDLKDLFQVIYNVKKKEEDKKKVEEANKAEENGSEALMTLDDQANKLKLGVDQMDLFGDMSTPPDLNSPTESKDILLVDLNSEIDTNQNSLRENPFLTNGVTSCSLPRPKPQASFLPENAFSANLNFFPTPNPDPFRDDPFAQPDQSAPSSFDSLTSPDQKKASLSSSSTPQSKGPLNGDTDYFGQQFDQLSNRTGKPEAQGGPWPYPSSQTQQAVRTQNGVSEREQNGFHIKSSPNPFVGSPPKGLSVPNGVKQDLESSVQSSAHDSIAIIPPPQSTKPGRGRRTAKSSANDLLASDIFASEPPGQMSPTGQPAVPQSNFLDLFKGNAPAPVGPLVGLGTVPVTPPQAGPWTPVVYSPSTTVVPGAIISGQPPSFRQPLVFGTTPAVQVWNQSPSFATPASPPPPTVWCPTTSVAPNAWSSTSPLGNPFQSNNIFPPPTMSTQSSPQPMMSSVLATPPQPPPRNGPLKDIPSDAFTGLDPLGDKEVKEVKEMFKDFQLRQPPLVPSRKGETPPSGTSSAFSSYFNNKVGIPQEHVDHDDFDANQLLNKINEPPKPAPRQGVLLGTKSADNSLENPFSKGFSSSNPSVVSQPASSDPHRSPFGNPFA
Assay: co-IP; primary aortic SMC (wild type or Lrp1^Y63F), starved 24 hr, 10 ng/ml PDGF-BB for 10 min, cross-linked with 0.05 µM DSP for 30 min, lysed in PBS with 1% TritonX; immunoprecipitation with antibodies against Shc1 or Dab2, immunoblot for LRP1

“Lrp1 Y63F (knock-in mutant, tyrosine of the distal NPxY motif replaced with phenylalanine) (receptor)” was tested, and the binding was “binds”.
